Experimental data taken from PMC9958131 (Nature Communications, 2023).

Tested on: PAD2 / PAD4
Experiment: Citrullination site mapping of fibrinogen and vimentin by trypsin digestion, protein-level sheet (native, PAD2- and PAD4-citrullinated samples searched together)
Format: biochemical, Homo sapiens
Details: deamidated Arg (= citrullinated) positions found by Sequest HT after trypsin digestion; one list for all six samples (native, PAD2-, PAD4-citrullinated fibrinogen and vimentin); co-purified/contaminant proteins
Source text: Description: Raw mass spectrometry data for proteolytic mapping of fibrinogen, vimentin, and hnRNP A2/B1 by cathepsins B, S, and H (sheets 1-6); citrullination site mapping of fibrinogen and vimentin by trypsin digestion (sheets 7-8); and the natural antigen processing assay with native, PAD2-citrullinated (PAD2-cit), and PAD4-citrullinated (PAD4-cit) fibrinogen (sheets 9-11).

MPVARSWVCRKTYVTPRRPFEKSRLDQELKLIGEYGLRNKREVWRVKFTLAKIRKAARELLTLDEKDPRRLFEGGSL [Peptide F2Z3C0]
Modifications: Deamidated [R38]
